These results are taken from the supplement of paper PMC10849652.

Amino acid sequences for entries named in this document (tags omitted). A change or cut given only in a name is not applied to a line headed by its entry.
UniProt Q9NZ09: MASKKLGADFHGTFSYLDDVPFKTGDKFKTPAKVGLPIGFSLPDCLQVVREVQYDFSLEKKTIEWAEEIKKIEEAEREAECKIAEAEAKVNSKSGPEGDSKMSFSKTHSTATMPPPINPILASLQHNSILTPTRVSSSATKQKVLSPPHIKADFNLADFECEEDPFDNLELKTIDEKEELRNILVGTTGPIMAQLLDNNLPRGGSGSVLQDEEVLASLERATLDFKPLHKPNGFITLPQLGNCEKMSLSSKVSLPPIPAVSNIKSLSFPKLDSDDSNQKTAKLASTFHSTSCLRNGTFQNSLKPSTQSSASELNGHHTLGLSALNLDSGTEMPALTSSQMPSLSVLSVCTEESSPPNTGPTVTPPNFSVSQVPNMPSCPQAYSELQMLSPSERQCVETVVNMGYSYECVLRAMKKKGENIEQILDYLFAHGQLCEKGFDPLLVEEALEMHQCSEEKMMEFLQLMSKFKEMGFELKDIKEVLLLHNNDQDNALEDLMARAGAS
UniProt P26368, whole entry, looked up: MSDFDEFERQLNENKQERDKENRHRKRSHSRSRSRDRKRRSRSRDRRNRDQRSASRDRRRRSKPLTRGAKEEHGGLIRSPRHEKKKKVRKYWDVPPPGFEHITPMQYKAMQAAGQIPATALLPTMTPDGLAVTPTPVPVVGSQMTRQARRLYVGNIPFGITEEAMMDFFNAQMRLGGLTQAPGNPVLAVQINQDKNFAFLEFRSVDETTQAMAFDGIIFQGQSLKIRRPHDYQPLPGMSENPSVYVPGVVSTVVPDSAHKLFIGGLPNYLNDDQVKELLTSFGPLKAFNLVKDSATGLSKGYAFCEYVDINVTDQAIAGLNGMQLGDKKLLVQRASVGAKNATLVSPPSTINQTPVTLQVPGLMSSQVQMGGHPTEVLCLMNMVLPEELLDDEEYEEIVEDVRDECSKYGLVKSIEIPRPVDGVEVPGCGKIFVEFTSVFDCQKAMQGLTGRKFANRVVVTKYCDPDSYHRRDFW
UniProt O14530: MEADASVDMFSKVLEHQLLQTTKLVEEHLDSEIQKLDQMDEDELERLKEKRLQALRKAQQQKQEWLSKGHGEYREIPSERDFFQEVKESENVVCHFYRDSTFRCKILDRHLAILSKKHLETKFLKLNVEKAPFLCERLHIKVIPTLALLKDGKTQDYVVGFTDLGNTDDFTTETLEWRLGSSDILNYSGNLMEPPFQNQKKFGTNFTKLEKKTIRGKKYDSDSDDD
UniProt P68036, whole entry, looked up: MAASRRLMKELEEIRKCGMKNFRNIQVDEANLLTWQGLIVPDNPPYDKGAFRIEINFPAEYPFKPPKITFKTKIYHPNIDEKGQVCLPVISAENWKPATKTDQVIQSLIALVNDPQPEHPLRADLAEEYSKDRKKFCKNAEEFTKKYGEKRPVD
UniProt Q05086: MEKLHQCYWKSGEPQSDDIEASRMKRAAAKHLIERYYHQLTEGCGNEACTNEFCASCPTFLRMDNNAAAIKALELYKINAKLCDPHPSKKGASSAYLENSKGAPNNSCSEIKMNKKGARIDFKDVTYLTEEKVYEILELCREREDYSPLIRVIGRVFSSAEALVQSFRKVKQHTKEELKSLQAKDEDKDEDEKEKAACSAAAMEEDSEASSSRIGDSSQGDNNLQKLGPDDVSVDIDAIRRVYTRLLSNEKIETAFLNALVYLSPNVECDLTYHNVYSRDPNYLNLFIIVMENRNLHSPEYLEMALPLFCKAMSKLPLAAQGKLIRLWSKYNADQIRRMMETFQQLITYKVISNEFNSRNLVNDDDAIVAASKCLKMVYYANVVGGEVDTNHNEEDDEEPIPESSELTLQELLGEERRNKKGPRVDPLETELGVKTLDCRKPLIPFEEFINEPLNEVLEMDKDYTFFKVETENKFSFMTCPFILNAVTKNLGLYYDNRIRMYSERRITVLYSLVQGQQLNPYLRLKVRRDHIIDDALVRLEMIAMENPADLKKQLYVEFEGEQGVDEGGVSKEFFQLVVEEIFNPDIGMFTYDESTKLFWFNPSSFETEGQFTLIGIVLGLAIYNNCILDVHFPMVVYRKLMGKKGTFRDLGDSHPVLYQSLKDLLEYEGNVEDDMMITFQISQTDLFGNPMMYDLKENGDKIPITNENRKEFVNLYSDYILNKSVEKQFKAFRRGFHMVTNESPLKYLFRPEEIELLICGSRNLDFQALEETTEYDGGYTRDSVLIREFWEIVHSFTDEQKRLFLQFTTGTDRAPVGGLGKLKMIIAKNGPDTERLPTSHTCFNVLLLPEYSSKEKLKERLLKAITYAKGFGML
UniProt Q8N5M4: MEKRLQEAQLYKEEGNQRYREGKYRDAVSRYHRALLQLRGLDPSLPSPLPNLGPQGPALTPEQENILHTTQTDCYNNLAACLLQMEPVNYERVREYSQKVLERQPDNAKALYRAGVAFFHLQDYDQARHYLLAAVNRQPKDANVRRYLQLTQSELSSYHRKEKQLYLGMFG
UniProt O95801: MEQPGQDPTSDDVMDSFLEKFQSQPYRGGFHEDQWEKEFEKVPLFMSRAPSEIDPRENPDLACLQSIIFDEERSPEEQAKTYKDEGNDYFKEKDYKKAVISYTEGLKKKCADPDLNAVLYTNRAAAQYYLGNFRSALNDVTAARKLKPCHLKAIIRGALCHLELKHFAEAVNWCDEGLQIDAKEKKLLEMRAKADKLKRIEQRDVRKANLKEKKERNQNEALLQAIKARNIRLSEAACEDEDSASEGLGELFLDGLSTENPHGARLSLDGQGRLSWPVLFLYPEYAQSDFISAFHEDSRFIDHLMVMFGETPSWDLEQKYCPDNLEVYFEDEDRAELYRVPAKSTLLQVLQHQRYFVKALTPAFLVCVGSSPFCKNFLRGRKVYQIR
UniProt Q969E8: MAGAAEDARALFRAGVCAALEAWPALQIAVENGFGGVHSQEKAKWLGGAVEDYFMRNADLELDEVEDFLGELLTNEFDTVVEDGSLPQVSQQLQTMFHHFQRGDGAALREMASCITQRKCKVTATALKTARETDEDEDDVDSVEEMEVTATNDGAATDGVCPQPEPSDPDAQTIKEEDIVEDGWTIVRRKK
UniProt Q9UJT0: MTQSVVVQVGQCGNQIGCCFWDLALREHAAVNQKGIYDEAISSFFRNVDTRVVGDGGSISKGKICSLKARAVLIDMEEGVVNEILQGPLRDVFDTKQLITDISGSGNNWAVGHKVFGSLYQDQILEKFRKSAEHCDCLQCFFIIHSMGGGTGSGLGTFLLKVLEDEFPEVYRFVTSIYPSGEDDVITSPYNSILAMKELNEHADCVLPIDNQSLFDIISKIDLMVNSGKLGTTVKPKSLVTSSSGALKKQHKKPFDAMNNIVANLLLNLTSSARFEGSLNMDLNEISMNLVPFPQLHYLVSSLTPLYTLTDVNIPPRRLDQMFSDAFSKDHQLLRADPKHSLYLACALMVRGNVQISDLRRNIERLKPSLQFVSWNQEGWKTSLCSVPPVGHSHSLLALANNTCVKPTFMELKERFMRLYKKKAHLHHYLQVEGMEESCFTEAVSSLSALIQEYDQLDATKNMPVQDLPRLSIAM
UniProt Q16763: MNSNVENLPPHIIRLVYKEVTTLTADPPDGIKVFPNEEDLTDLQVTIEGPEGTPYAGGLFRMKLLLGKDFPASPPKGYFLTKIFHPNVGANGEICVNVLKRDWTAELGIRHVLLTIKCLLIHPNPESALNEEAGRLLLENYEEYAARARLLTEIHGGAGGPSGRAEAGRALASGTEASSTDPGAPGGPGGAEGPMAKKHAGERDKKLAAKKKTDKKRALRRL
UniProt Q969T4: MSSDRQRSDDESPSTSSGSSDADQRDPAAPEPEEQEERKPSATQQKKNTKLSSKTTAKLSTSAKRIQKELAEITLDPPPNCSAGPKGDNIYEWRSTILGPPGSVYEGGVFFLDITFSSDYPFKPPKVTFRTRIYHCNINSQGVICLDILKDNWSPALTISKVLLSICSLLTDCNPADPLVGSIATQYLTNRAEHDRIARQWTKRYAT
UniProt Q5T6F2: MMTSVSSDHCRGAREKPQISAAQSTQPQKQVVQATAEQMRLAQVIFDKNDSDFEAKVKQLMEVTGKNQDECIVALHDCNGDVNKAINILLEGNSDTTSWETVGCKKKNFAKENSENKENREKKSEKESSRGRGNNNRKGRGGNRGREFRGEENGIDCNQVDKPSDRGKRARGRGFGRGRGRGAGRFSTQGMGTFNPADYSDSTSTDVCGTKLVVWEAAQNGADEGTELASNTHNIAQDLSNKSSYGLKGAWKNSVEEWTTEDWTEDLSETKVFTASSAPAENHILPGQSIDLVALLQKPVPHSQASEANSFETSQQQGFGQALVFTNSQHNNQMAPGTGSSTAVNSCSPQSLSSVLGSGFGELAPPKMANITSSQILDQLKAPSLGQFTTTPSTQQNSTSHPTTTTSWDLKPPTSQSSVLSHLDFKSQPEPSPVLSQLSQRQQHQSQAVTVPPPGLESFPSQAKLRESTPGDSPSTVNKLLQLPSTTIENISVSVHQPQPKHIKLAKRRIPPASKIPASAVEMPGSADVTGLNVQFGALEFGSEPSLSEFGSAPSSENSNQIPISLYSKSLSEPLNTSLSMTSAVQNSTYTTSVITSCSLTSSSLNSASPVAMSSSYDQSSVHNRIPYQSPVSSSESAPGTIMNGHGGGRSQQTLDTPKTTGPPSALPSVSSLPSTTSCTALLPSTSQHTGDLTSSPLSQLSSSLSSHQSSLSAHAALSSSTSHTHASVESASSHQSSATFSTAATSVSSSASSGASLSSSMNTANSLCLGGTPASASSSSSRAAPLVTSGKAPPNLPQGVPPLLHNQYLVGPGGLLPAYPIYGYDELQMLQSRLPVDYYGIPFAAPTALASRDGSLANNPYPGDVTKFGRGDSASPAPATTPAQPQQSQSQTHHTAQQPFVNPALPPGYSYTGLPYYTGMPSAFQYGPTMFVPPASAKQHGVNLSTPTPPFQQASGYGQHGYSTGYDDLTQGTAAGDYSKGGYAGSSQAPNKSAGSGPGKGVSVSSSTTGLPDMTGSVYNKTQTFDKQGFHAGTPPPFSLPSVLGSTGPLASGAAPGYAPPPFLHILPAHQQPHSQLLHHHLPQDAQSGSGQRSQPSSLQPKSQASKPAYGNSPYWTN
UniProt Q16222: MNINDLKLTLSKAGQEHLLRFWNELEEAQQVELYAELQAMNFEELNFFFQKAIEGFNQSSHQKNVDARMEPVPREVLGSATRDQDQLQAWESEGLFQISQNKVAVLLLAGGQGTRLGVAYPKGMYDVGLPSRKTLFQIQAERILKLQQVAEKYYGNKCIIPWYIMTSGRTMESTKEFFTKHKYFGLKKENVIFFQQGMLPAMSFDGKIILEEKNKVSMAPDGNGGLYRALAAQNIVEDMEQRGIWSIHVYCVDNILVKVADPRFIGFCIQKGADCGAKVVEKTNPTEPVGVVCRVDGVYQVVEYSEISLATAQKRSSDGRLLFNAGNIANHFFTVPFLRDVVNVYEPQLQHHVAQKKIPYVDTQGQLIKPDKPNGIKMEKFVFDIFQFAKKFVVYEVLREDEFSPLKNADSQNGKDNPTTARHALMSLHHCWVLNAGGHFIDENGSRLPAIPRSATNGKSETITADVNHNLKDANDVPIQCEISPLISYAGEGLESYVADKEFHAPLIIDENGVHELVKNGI
UniProt Q8NG68: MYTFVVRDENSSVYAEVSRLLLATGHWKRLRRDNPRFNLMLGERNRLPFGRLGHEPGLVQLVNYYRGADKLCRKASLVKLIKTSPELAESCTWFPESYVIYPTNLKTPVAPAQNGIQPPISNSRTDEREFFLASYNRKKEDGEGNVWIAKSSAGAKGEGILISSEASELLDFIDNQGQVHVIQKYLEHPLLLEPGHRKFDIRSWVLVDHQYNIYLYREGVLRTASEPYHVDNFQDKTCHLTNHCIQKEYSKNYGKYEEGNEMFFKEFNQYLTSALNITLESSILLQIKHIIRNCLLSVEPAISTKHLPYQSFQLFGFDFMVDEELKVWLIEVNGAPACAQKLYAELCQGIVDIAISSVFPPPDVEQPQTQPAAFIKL
UniProt Q9NPD8: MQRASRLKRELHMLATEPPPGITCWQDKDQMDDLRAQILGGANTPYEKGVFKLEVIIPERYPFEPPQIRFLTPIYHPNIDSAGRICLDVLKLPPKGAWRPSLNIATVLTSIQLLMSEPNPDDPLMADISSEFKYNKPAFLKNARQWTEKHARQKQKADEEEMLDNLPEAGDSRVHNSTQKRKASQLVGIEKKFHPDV
UniProt P61086: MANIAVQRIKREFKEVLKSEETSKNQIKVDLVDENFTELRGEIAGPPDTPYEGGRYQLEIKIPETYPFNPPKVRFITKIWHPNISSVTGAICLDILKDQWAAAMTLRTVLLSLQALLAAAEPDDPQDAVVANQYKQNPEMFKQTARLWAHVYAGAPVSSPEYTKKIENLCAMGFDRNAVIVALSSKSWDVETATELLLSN
UniProt Q99757: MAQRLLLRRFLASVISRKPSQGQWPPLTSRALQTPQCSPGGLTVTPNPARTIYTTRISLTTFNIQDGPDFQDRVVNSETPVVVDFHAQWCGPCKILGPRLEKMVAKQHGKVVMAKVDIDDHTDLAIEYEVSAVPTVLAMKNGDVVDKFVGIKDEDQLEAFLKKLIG

This is one part of the list.

Compound in one assay: NC(=O)Nc1cc(-c2cccc(F)c2)sc1C(=O)N[C@H]1CCCNC1
The assay can be described thus: log2 fold change, soluble protein after heating vs DMSO (PISA); higher = thermal stabilisation; K562 cells, 10 uM, 30 min; active = over 0.2 and 3.5 SD of the protein, either way, in both replicates (recomputed). In outline: (§1)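 K562 cells at 2×10^6 cells/mL were given 10 μM compound for 30 min. Aliquots then went through 3 min of heating across 48°C-58°C, were pooled, and were extracted in PBS with 0.5% NP-40 at 4°C, and the supernatant after 21,000xg for 90 min was quantified by TMTpro 16plex LC-MS/MS with channel sums equalised. Thermal stability relative to control samples, from duplicates, is given as log2 fold change.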
Regarding UBAP1 isoform 4 (UniProt Q9NZ09), the log2 fold change is inactive: -0.035.

On to U2AF2 (UniProt P26368), for which the log2 fold change is inactive: -0.125.

Consider TSPAN14 (UniProt Q8NG11), for which the log2 fold change is inactive: 0.046.

With UBA3 (UniProt Q8TBC4), the log2 fold change was inactive: -0.035.

As for TXNL4A (UniProt P83876), the log2 fold change was inactive: -0.011.

As to TXNDC9 (UniProt O14530), the log2 fold change is inactive: 0.005.

On to UBE2L3 isoform 3 (UniProt P68036), for which the log2 fold change is inactive: -0.033.

For UBAC1 (UniProt Q9BSL1), the log2 fold change was inactive: 0.026.

Regarding TTF2 (UniProt Q9UNY4), the log2 fold change was inactive: -0.017.

For UBE3A (UniProt Q05086), the log2 fold change is inactive: -0.006.

Regarding TTC9C (UniProt Q8N5M4), the log2 fold change was inactive: 0.063.

Take TTC4 (UniProt O95801): the log2 fold change was inactive: -0.071.

In the case of UBA1 (UniProt P22314), the log2 fold change was inactive: -0.044.

Turning to TSFM (UniProt P43897), the log2 fold change was inactive: -0.068.

As to TSR2 (UniProt Q969E8), the log2 fold change was inactive: -0.221.

As to TUBE1 (UniProt Q9UJT0), the log2 fold change was inactive: 0.043.

As to UBE2S (UniProt Q16763), the log2 fold change is inactive: -0.04.

For TXNRD2 (UniProt Q9NNW7), the log2 fold change was inactive: 0.034.

Consider UBE2E3 (UniProt Q969T4), for which the log2 fold change was inactive: -0.007.

For UBAP2 (UniProt Q5T6F2), the log2 fold change was inactive: -0.011.

Take UBE2M (UniProt P61081): the log2 fold change was inactive: -0.046.

For the target TTC17 (UniProt Q96AE7), the log2 fold change was inactive: 0.012.

As to TTI1 (UniProt O43156), the log2 fold change was inactive: -0.079.

Turning to UAP1 (UniProt Q16222), the log2 fold change is inactive: -0.043.

TSPO (UniProt P30536): the log2 fold change was inactive: -0.035.

Regarding TTN isoform 12 (UniProt Q8WZ42), the log2 fold change is inactive: -0.464.

Take TTL (UniProt Q8NG68): the log2 fold change is inactive: -0.011.

For the target TXNDC15 (UniProt Q96J42), the log2 fold change was inactive: 0.

As to UBE2T (UniProt Q9NPD8), the log2 fold change is inactive: -0.029.

Turning to TWF2 (UniProt Q6IBS0), the log2 fold change is inactive: 0.028.

Regarding TUFM (UniProt P49411), the log2 fold change is inactive: 0.092.

Turning to UBA52 (UniProt P62987), the log2 fold change is inactive: 0.067.

As to UBE2G1 (UniProt P62253), the log2 fold change was inactive: 0.

Take UBE2F isoform 2 (UniProt Q969M7): the log2 fold change was inactive: -0.01.

Turning to U2SURP (UniProt O15042), the log2 fold change was inactive: -0.032.

For TXNIP (UniProt Q9H3M7), the log2 fold change is inactive: 0.091.

Take UBE2K (UniProt P61086): the log2 fold change is inactive: -0.007.

U2AF1 isoform 2 (UniProt Q01081): the log2 fold change is inactive: -0.174.

As for TUBB3 (UniProt Q13509), the log2 fold change was inactive: 0.015.

Regarding TXN2 (UniProt Q99757), the log2 fold change is inactive: -0.039.

Compound in a further assay: NC(=O)c1cnc(N[C@@H]2CCCC[C@@H]2N)nc1Nc1cccc(-n2nccn2)c1
Described as above. The essentials:
as §1
Regarding UBAP1 isoform 4 (UniProt Q9NZ09), the log2 fold change is inactive: -0.005.

On to U2AF2 (UniProt P26368), for which the log2 fold change was inactive: -0.021.

On to TSPAN14 (UniProt Q8NG11), for which the log2 fold change was inactive: 0.082.

As to UBA3 (UniProt Q8TBC4), the log2 fold change is inactive: -0.037.

With TXNL4A (UniProt P83876), the log2 fold change is inactive: -0.026.

In the case of TXNDC9 (UniProt O14530), the log2 fold change was inactive: -0.017.

Turning to UBE2L3 isoform 3 (UniProt P68036), the log2 fold change was inactive: 0.013.

For UBAC1 (UniProt Q9BSL1), the log2 fold change is inactive: -0.101.

For the target TTF2 (UniProt Q9UNY4), the log2 fold change was inactive: 0.112.

For UBE3A (UniProt Q05086), the log2 fold change was inactive: -0.001.

Consider TTC9C (UniProt Q8N5M4), for which the log2 fold change was inactive: 0.026.

For the target TTC4 (UniProt O95801), the log2 fold change was inactive: -0.047.

Regarding UBA1 (UniProt P22314), the log2 fold change is inactive: -0.112.

Consider TSFM (UniProt P43897), for which the log2 fold change was inactive: 0.03.

For the target TSR2 (UniProt Q969E8), the log2 fold change was inactive: 0.047.

For the target TUBE1 (UniProt Q9UJT0), the log2 fold change is inactive: 0.024.

With UBE2S (UniProt Q16763), the log2 fold change was inactive: -0.043.

Take TXNRD2 (UniProt Q9NNW7): the log2 fold change was inactive: -0.005.

Consider UBE2E3 (UniProt Q969T4), for which the log2 fold change was inactive: -0.052.

As for UBAP2 (UniProt Q5T6F2), the log2 fold change was inactive: 0.022.

For the target UBE2M (UniProt P61081), the log2 fold change is inactive: -0.038.

Regarding TTC17 (UniProt Q96AE7), the log2 fold change is inactive: -0.001.

On to TTI1 (UniProt O43156), for which the log2 fold change was inactive: -0.093.

Turning to UAP1 (UniProt Q16222), the log2 fold change is inactive: -0.002.

For the target TSPO (UniProt P30536), the log2 fold change is inactive: -0.091.

As to TTN isoform 12 (UniProt Q8WZ42), the log2 fold change was inactive: -0.179.

Take TTL (UniProt Q8NG68): the log2 fold change was inactive: 0.01.

In the case of TXNDC15 (UniProt Q96J42), the log2 fold change is inactive: 0.065.

Take UBE2T (UniProt Q9NPD8): the log2 fold change is inactive: -0.006.

On to TWF2 (UniProt Q6IBS0), for which the log2 fold change is inactive: -0.029.

In the case of TUFM (UniProt P49411), the log2 fold change is inactive: -0.018.

For the target UBA52 (UniProt P62987), the log2 fold change is inactive: 0.158.

Regarding UBE2G1 (UniProt P62253), the log2 fold change was inactive: -0.046.

Take UBE2F isoform 2 (UniProt Q969M7): the log2 fold change was inactive: -0.037.

Regarding U2SURP (UniProt O15042), the log2 fold change is inactive: -0.051.

TXNIP (UniProt Q9H3M7): the log2 fold change was inactive: -0.024.

Consider UBE2K (UniProt P61086), for which the log2 fold change is inactive: 0.034.

With U2AF1 isoform 2 (UniProt Q01081), the log2 fold change is inactive: -0.017.

Take TUBB3 (UniProt Q13509): the log2 fold change was inactive: 0.108.

For TXN2 (UniProt Q99757), the log2 fold change was inactive: -0.009.
